Measured values reported in US8476434B2, “Protein kinase modulators and method of use” (Amgen Inc., priority 2004, dated 2013).
Some results were stated once for a whole list of compounds, not compound by compound.

By UniProt entry, the sequences of proteins in these tests, tags left out. Residues count along the entry.
UniProt Q02763, 23-1124: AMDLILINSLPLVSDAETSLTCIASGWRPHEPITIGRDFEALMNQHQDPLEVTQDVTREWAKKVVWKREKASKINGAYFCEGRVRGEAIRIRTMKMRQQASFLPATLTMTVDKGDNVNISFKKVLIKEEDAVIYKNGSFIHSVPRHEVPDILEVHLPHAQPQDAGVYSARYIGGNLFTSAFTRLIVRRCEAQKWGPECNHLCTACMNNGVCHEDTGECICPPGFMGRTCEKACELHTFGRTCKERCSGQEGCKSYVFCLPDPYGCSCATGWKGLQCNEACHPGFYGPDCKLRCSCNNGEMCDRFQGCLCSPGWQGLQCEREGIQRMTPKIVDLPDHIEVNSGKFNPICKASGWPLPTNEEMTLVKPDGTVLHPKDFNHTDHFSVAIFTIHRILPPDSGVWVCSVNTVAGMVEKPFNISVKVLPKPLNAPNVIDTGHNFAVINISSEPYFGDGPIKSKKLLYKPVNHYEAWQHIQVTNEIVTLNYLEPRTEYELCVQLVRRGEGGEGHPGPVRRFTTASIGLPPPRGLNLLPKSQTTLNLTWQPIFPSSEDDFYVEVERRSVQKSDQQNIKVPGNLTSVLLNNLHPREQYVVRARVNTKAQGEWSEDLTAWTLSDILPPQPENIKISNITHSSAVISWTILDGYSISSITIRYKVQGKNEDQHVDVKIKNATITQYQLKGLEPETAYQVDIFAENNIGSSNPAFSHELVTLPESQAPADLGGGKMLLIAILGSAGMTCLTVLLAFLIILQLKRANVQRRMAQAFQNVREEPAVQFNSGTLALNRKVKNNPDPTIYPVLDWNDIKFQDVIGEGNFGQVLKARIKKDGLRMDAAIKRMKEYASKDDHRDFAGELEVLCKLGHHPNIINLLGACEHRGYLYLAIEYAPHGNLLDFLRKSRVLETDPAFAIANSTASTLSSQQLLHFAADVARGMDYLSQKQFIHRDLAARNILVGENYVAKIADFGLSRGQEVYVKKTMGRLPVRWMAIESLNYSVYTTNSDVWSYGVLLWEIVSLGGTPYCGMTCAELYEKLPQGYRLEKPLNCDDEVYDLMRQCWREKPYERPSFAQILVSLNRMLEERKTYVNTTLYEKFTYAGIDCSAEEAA

Target: Tie-2 kinase enzyme (Homo sapiens, UniProt Q02763)
Test: Tie-2 Homogenous Time Resolved Fluorescent (HTRF) kinase assay
Assay type: biochemical
Details: read-out: IC50's for the inhibition of Tie-2 as measured by the HTRF assay

Row | SMILES | IC50 [µM]
1 | CNc1nccc(-c2cccnc2Oc2ccc(NC(=O)Nc3cc(C(F)(F)F)ccc3N3CCOCC3)cc2C)n1 [Example 842, N-(3-methyl-4-((3-(2-(methylamino)-4-pyrimidinyl)-2-pyridinyl)oxy)phenyl)-N′-(2-(4-morpholinyl)-5-(trifluoromethyl)phenyl)urea] | < 5
2 | CNc1ncnc(-c2cccnc2Oc2ccc(NC(=O)Nc3ccccc3OC)c3ccccc23)n1 [Example 845, N-(4-((3-(4-(methylamino)-1,3,5-triazin-2-yl)-2-pyridinyl)oxy)-1-naphthalenyl)-N′-(2-(methyloxy)phenyl)urea] | < 5
3 | CNc1ncnc(-c2cccnc2Oc2ccc(NC(=O)Nc3cc(OC)cc(OC)c3)c3ccccc23)n1 [Example 847, N-(3,5-bis(methyloxy)phenyl)-N′-(4-((3-(4-(methylamino)-1,3,5-triazin-2-yl)-2-pyridinyl)oxy)-1-naphthalenyl)urea] | < 5
4 | CNc1ncnc(-c2cccnc2Oc2ccc(NC(=O)Nc3ccccc3OC)cc2C)n1 [Example 848, N-(3-methyl-4-((3-(4-(methylamino)-1,3,5-triazin-2-yl)-2-pyridinyl)oxy)phenyl)-N′-(2-(methyloxy)phenyl)urea] | < 5
5 | CNc1ncnc(-c2cccnc2Oc2ccc(NC(=O)Nc3cc(Cl)ccc3OC)cc2C)n1 [Example 849, N-(5-chloro-2-(methyloxy)phenyl)-N′-(3-methyl-4-((3-(4-(methylamino)-1,3,5-triazin-2-yl)-2-pyridinyl)oxy)phenyl)urea] | < 5
6 | CNc1ncnc(-c2cccnc2Oc2ccc(NC(=O)Nc3cc(OC)cc(OC)c3)cc2C)n1 [Example 850, N-(3,5-bis(methyloxy)phenyl)-N′-(3-methyl-4-((3-(4-(methylamino)-1,3,5-triazin-2-yl)-2-pyridinyl)oxy)phenyl)urea] | < 5
7 | CNc1ncnc(-c2cccnc2Oc2ccc(NC(=O)Nc3cc(C(F)(F)F)ccc3Cl)cc2C)n1 [Example 853, N-(2-chloro-5-(trifluoromethyl)phenyl)-N′-(3-methyl-4-((3-(4-(methylamino)-1,3,5-triazin-2-yl)-2-pyridinyl)oxy)phenyl) urea] | < 5
8 | CNc1ncnc(-c2cccnc2Oc2ccc(NC(=O)Nc3ccc(OC)cc3OC)cc2C)n1 [Example 854, N-(2,4-bis(methyloxy)phenyl)-N′-(3-methyl-4-((3-(4-(methylamino)-1,3,5-triazin-2-yl)-2-pyridinyl)oxy)phenyl) urea] | < 5
9 | CNc1ncnc(-c2cccnc2Oc2ccc(NC(=O)Nc3cc(Cl)c(OC)cc3OC)cc2C)n1 [Example 855, N-(5-chloro-2,4-bis(methyloxy)phenyl)-N′-(3-methyl-4-((3-(4-(methylamino)-1,3,5-triazin-2-yl)-2-pyridinyl)oxy)phenyl) urea] | < 5
10 | CNc1ncnc(-c2cccnc2Oc2ccc(NC(=O)Nc3cc(C(F)(F)F)ccc3Cl)c3ccccc23)n1 [Example 856, N-(2-chloro-5-(trifluoromethyl)phenyl)-N′-(4-((3-(4-(methylamino)-1,3,5-triazin-2-yl)-2-pyridinyl)oxy)-1-naphthalenyl)urea] | < 5
11 | CNc1ncnc(-c2cccnc2Oc2ccc(NC(=O)Nc3ccc(OC)cc3OC)c3ccccc23)n1 [Example 857, N-(2,4-bis(methyloxy)phenyl)-N′-(4-((3-(4-(methylamino)-1,3,5-triazin-2-yl)-2-pyridinyl)oxy)-1-naphthalenyl)urea] | < 5
12 | CNc1ncnc(-c2cccnc2Oc2ccc(NC(=O)Nc3cc(Cl)c(OC)cc3OC)c3ccccc23)n1 [Example 858, N-(5-chloro-2,4-bis(methyloxy)phenyl)-N′-(4-((3-(4-(methylamino)-1,3,5-triazin-2-yl)-2-pyridinyl)oxy)-1-naphthalenyl)urea] | < 5
13 | Cc1cc(NC(=O)Nc2cc(C(F)(F)F)ccc2OCCCN(C)C)ccc1Oc1ncccc1-c1ccncn1 [Example 861, N-(2-((3-(dimethylamino)propyl)oxy)-5-(trifluoromethyl)phenyl)-N′-(3-methyl-4-((3-(4-pyrimidinyl)-2-pyridinyl)oxy)phenyl)urea] | < 5
14 | Cc1cc(NC(=O)Nc2cc(C(F)(F)F)cc(Cl)c2N(C)CCCN(C)C)ccc1Oc1ncccc1-c1ccncn1 [Example 865, N-(3-chloro-2-((3-(dimethylamino)propyl) (methyl)amino)-5-(trifluoromethyl)phenyl)-N′-(3-methyl-4-((3-(4-pyrimidinyl)-2-pyridinyl)oxy)phenyl)urea] | < 5
15 | Cc1cc(NC(=O)Nc2cc(Cl)ccc2N(C)CCCN(C)C)ccc1Oc1ncccc1-c1ccncn1 [Example 866, N-(5-chloro-2-((3-(dimethylamino)propyl) (methyl)amino)phenyl)-N′-(3-methyl-4-((3-(4-pyrimidinyl)-2-pyridinyl)oxy)phenyl)urea] | < 5
16 | CCc1cccc(NC(=O)Nc2ccc(Oc3ncccc3-c3ncnc(NC)n3)c(C)c2)c1 [Example 870, N-(3-ethylphenyl)-N′-(3-methyl-4-((3-(4-(methylamino)-1,3,5-triazin-2-yl)-2-pyridinyl)oxy)phenyl)urea] | < 5
17 | CNc1ncnc(-c2cccnc2Oc2ccc(NC(=O)Nc3cc(C)ccc3C)cc2C)n1 [Example 871, N-(2,5-dimethylphenyl)-N′-(3-methyl-4-((3-(4-(methylamino)-1,3,5-triazin-2-yl)-2-pyridinyl)oxy)phenyl)urea] | < 5
18 | CNc1ncnc(-c2cccnc2Oc2ccc(NC(=O)Nc3cc(OC)ccc3OC)cc2C)n1 [Example 872, N-(2,5-bis(methyloxy)phenyl)-N′-(3-methyl-4-((3-(4-(methylamino)-1,3,5-triazin-2-yl)-2-pyridinyl)oxy)phenyl)urea] | < 5
19 | CNc1ncnc(-c2cccnc2Oc2ccc(NC(=O)Nc3cc(Cl)ccc3OC)cc2Cl)n1 [Example 876, N-(3-chloro-4-((3-(4-(methylamino)-1,3,5-triazin-2-yl)-2-pyridinyl)oxy)phenyl)-N′-(5-chloro-2-(methyloxy)phenyl)urea] | < 5
20 | CNc1ncnc(-c2cccnc2Oc2ccc(NC(=O)Nc3cc(OC)cc(OC)c3)cc2Cl)n1 [Example 877, N-(3,5-bis(methyloxy)phenyl)-N′-(3-chloro-4-((3-(4-(methylamino)-1,3,5-triazin-2-yl)-2-pyridinyl)oxy)phenyl)urea] | < 5
21 | Cc1cc(NC(=O)Nc2cc(C3CC3)ccc2N(C)CCCN(C)C)ccc1Oc1ncccc1-c1ccncn1 [Example 879, N-(5-cyclopropyl-2-((3-(dimethylamino)propyl) (methyl)amino)phenyl)-N′-(3-methyl-4-((3-(4-pyrimidinyl)-2-pyridinyl)oxy)phenyl)urea] | < 5
22 | CNc1nccc(-c2cc(N3CCOCC3)cnc2Oc2cc(C(=O)Nc3cccc(C(C)C)c3)ccc2C)n1 [Example 1176, 4-methyl-3-((3-(2-(methylamino)-4-pyrimidinyl)-5-(4-morpholinyl)-2-pyridinyl)oxy)-N-(3-(1-methylethyl)phenyl)benz-amide] | < 5
23 | CNc1nccc(-c2cc(N3CCN(C)CC3)cnc2Oc2cc(C(=O)Nc3cccc(C(C)C)c3)ccc2C)n1 [Example 1177, 4-methyl-3-((3-(2-(methylamino)-4-pyrimidinyl)-5-(4-methyl-1-piperazinyl)-2-pyridinyl)oxy)-N-(3-(1-methylethyl)phenyl)benz-amide] | < 5
24 | CNc1nccc(-c2cc(N(C)CCCN(C)C)cnc2Oc2cc(C(=O)Nc3cccc(C(C)C)c3)ccc2C)n1 [Example 1178, 3-((5-((3-(dimethylamino)propyl)(meth-yl)amino)-3-(2-(methylamino)-4-pyrimidinyl)-2-pyridinyl)oxy)-4-methyl-N-(3-(1-methylethyl)phenyl)benz-amide] | < 5
25 | CNc1nccc(-c2cccnc2Oc2ccc(Cl)c(NC(=O)c3cc(C(F)(F)F)ccc3N(C)CCCN(C)C)c2)n1 [Example 1206, N-(2-chloro-5-((3-(2-(methylamino)-4-pyrimidinyl)-2-pyridinyl)oxy)phenyl)-2-((3-(dimethylamino)propyl)(methyl)amino)-5-(trifluoromethyl) benzamide] | < 5
26 | CNc1ncnc(-c2cccnc2Oc2ccc(Cl)c(NC(=O)c3cc(C(F)(F)F)ccc3N(C)CCCN(C)C)c2)n1 [Example 1207, N-(2-chloro-5-((3-(4-(methylamino)-1,3,5-triazin-2-yl)-2-pyridinyl)oxy)phenyl)-2-((3-(dimethylamino)propyl)(methyl)amino)-5-(trifluoromethyl) benzamide] | < 5
27 | CNc1nccc(-c2cccnc2Oc2ccc(Cl)c(NC(=O)c3cc(C(F)(F)F)ccc3N3CC[C@@H](N(C)C)C3)c2)n1 [Example 1208, N-(2-chloro-5-((3-(2-(methylamino)-4-pyrimidinyl)-2-pyridinyl)oxy)phenyl)-2-((3R)-3-(dimethylamino)-1-pyrrolidinyl)-5-(trifluoromethyl) benzamide] | < 5
28 | CNc1nccc(-c2cccnc2Oc2ccc(Cl)c(NC(=O)c3cc(C(F)(F)F)ccc3N3CC[C@H](N(C)C)C3)c2)n1 [Example 1209, N-(2-chloro-5-((3-(2-(methylamino)-4-pyrimidinyl)-2-pyridinyl)oxy)phenyl)-2-((3S)-3-(dimethylamino)-1-pyrrolidinyl)-5-(trifluoromethyl) benzamide] | < 5
29 | CNc1cc(-c2cccnc2Oc2ccc(Cl)c(NC(=O)c3cc(C(F)(F)F)ccc3N(C)CCCN(C)C)c2)ccn1 [Example 1210, N-(2-chloro-5-((2′-(methylamino)-3,4′-bipyridin-2-yl)oxy)phenyl)-2-((3-(dimethylamino)propyl)(methyl)amino)-5-(trifluoromethyl) benzamide] | < 5
30 | CNc1ncnc(-c2cccnc2Oc2ccc(Cl)c(NC(=O)c3cc(C(F)(F)F)ccc3N(C)CCN(C)C)c2)n1 [Example 1211, N-(2-chloro-5-((3-(4-(methylamino)-1,3,5-triazin-2-yl)-2-pyridinyl)oxy)phenyl)-2-((2-(dimethylamino)ethyl)(methyl)amino)-5-(trifluoromethyl) benzamide] | < 5
